Data reported in the supplement of paper PMC12889115.
Some of the results follow. Values are raw readings; no control value is given beside them.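 Primary screen: polymyxin B was added at a level permeabilizing Salmonella outer membranes while sparing inner membranes. DMSO wells, both with and without polymyxin B, established maximum growth. Plate-to-plate variation meant each plate was ranked on its own, and the lowest-OD600 compounds were selected as hits.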

Tested on: Salmonella enterica serovar Typhimurium SL1344
Experiment: bacterial growth OD600 after 18 h with compound and polymyxin B; higher = more bacterial growth (less inhibition)
Settings: 50 µM, Mueller-Hinton broth

| Compound | bacterial growth OD600 (polymyxin B 1 µg/mL) | bacterial growth OD600 (polymyxin B 0.75 µg/mL) |
| --- | --- | --- |
| COc1ccc(F)cc1C(=O)C1CCCN(Cc2ccc(F)c(F)c2)C1 (centres undefined) | 0.64 | – |
| CC(Cc1cncs1)NC1CCN(c2cccc(NC(=O)CCCc3ccccc3)c2)CC1 (centres undefined) | – | 0.825 |
| Cc1ccccc1Cn1cc(C(=O)N(Cc2ccccc2)CC2CCC2)nn1 | 0.485 | – |
| CN(Cc1ccc(F)cc1)c1ccc(OCC(=O)N2CCCN(Cc3cccc(F)c3)CC2)nn1 | – | 0.85 |
| CCCn1ncc(CN2CCCC(C(=O)c3ccc(Cl)cc3C)C2)c1C (centres undefined) | 0.803 | – |
| Cc1cc2nc(N3CCC(NC(C)Cc4cccs4)CC3)nc(C)c2cc1C (centres undefined) | – | 0.866 |
| COC(C(=O)Nc1ccnn1C1CCN(C(=O)C2C(C)(C)C2(C)C)CC1)c1ccccc1 (centres undefined) | 0.833 | – |
| COc1cccc(C(=O)C2CCCN(Cc3c(F)ccc(F)c3F)C2)c1 (centres undefined) | 0.672 | – |
| O=C1O[C@@H]2CN(Cc3ncc[nH]3)C[C@@H]2N1CCc1ccccn1 | 0.961 | – |
